Assay results: paper PMC7493981
No constants are given. Whether binding was seen depends on the method and setting. In cells and extracts the contact can be indirect. Some entries that bind do so weakly or less than the wild type. Each block holds one molecule with its values, some of them ahead of it.

Amino acid sequences for entries named in this document (tags omitted).
UniProt Q4JK59: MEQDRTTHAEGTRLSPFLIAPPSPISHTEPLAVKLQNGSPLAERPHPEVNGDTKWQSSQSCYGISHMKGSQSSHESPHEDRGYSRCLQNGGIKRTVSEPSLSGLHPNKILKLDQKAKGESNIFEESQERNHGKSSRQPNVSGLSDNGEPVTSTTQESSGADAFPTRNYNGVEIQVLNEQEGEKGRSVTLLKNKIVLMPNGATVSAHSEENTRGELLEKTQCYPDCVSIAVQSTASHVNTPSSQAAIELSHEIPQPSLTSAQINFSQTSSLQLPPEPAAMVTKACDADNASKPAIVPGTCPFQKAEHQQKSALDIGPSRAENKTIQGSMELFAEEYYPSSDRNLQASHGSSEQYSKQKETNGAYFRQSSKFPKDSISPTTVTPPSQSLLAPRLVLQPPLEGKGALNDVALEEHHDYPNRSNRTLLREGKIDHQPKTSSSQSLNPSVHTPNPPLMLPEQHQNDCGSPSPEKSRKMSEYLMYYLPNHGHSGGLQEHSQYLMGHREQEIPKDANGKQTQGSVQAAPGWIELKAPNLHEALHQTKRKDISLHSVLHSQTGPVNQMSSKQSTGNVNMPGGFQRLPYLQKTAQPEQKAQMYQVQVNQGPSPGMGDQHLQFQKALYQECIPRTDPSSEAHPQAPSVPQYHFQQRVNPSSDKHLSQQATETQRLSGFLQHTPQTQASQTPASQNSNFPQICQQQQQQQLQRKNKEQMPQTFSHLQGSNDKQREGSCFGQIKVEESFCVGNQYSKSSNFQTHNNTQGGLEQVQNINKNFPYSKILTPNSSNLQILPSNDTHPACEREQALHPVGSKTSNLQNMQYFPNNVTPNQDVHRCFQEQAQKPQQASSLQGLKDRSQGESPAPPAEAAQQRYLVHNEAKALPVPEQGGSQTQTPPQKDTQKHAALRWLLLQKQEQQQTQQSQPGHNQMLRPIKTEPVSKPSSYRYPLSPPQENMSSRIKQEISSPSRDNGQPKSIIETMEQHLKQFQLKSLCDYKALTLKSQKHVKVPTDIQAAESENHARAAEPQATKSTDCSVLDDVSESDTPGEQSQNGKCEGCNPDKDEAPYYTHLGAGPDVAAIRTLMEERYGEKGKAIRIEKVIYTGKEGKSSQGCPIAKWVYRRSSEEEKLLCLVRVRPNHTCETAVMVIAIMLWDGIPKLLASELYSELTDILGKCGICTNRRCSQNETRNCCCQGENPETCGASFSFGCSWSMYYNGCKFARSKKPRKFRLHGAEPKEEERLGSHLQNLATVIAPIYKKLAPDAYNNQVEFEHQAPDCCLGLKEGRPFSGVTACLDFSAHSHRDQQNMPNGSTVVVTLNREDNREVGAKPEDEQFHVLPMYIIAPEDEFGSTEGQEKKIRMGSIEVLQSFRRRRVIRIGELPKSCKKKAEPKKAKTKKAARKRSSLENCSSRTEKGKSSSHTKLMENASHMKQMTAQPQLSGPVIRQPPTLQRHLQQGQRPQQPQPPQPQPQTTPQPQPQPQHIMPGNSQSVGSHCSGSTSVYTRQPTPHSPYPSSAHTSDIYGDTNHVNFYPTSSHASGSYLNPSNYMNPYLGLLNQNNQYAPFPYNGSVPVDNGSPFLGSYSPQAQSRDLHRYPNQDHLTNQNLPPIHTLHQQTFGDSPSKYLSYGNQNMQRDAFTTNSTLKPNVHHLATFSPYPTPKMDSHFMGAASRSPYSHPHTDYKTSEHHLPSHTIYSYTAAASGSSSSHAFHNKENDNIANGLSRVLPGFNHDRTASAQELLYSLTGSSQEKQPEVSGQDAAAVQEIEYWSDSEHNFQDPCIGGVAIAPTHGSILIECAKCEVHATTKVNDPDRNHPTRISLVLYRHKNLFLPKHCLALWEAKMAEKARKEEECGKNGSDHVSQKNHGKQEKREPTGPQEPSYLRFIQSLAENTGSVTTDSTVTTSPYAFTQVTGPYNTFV
UniProt P58462: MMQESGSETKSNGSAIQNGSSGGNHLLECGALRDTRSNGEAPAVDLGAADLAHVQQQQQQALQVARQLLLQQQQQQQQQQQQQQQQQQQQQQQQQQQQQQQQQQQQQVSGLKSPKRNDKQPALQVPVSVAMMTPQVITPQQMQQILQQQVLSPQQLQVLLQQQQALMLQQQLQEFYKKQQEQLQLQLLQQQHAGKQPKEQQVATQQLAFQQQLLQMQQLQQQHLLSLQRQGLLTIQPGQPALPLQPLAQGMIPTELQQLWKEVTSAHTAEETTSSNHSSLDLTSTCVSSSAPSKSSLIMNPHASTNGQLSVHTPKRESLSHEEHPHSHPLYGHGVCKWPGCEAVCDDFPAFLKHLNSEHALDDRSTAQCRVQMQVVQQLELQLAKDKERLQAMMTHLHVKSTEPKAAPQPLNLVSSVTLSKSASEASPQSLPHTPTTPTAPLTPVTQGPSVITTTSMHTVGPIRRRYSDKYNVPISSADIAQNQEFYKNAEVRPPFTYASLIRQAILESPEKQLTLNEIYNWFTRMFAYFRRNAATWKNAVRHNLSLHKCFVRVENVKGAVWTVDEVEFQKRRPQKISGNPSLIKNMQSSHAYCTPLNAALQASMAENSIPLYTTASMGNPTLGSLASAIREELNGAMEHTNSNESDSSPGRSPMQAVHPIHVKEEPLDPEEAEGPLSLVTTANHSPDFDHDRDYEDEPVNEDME

Assays:
[1] = biological target: TET2 (mouse, endogenous) (mouse (endogenous in mouse mammary epithelial cells)) (UniProt Q4JK59); experiment: co-IP; reciprocal co-immunoprecipitation of endogenous proteins from WT mouse mammary epithelial cells with anti-TET2 and anti-FOXP1, standard protocol, immunoblot
[2] = biological target: TET2 (human, endogenous) (human (endogenous in MCF12A)) (UniProt Q6N021); experiment: co-IP; reciprocal co-immunoprecipitation of endogenous proteins from human mammary epithelial cells MCF12A with anti-TET2 and anti-FOXP1, standard protocol, immunoblot

binding [1]: binds
Molecule: Forkhead box protein P1 (FOXP1) (mouse, endogenous) (from UniProt P58462 1-705)

binding [2]: binds
B1: Forkhead box protein P1 (FOXP1) (human, endogenous) (protein, UniProt Q9H334 1-677)
chain: MMQESGTETKSNGSAIQNGSGGSNHLLECGGLREGRSNGETPAVDIGAADLAHAQQQQQQALQVARQLLLQQQQQQQVSGLKSPKRNDKQPALQVPVSVAMMTPQVITPQQMQQILQQQVLSPQQLQVLLQQQQALMLQQQQLQEFYKKQQEQLQLQLLQQQHAGKQPKEQQQVATQQLAFQQQLLQMQQLQQQHLLSLQRQGLLTIQPGQPALPLQPLAQGMIPTELQQLWKEVTSAHTAEETTGNNHSSLDLTTTCVSSSAPSKTSLIMNPHASTNGQLSVHTPKRESLSHEEHPHSHPLYGHGVCKWPGCEAVCEDFQSFLKHLNSEHALDDRSTAQCRVQMQVVQQLELQLAKDKERLQAMMTHLHVKSTEPKAAPQPLNLVSSVTLSKSASEASPQSLPHTPTTPTAPLTPVTQGPSVITTTSMHTVGPIRRRYSDKYNVPISSADIAQNQEFYKNAEVRPPFTYASLIRQAILESPEKQLTLNEIYNWFTRMFAYFRRNAATWKNAVRHNLSLHKCFVRVENVKGAVWTVDEVEFQKRRPQKISGNPSLIKNMQSSHAYCTPLNAALQASMAENSIPLYTTASMGNPTLGNLASAIREELNGAMEHTNSNESDSSPGRSPMQAVHPVHVKEEPLDPEEAEGPLSLVTTANHSPDFDHDRDYEDEPVNEDME
